Experimental data: paper PMC10852281
These are yes or no findings as the source states them, for the method shown. In cells and extracts the contact can be indirect. Binding can be weak; no strength is given.

Protein sequences, listed by entry. Tags and fused reporters are not part of them. Lines headed by an entry give the natural chain unless they say otherwise; changes in a name come on top.
UniProt Q9H3M7: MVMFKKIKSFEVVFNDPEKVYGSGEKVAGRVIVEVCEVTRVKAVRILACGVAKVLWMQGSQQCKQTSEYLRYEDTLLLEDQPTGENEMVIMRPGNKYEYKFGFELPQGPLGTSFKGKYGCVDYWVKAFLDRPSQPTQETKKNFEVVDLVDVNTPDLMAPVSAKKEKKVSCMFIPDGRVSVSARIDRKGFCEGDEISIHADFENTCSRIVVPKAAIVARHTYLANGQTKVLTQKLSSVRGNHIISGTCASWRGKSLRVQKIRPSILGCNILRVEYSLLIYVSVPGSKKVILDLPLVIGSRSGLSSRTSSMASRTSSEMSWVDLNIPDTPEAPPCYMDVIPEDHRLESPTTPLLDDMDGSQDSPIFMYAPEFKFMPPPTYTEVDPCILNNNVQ
UniProt P11166: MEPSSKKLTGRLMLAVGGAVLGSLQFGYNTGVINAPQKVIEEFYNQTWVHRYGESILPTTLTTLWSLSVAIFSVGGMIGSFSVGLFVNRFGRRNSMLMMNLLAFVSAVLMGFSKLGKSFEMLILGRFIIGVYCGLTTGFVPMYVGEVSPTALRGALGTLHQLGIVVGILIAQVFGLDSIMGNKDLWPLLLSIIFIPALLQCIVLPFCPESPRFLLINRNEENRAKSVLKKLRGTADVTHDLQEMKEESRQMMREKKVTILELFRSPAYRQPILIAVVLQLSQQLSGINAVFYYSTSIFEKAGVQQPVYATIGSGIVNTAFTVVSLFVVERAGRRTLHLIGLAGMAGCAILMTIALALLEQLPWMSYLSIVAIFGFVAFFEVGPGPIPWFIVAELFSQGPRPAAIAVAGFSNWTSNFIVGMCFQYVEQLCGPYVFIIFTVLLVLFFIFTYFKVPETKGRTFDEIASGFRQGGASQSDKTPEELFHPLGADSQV

Tests used:
[1] = molecular target: TXNIP LL2A-VN (di-leucine motif replaced with alanine, BiFC fusion) (UniProt Q9H3M7); assay: split reporter; BiFC; HeLa cells co-expressing VN and VC fusions, green fluorescent signal by confocal microscopy, cells fixed with 4% PFA
[2] = molecular target: TXNIP ARR-VN (amino-terminal ARR only mutant, BiFC fusion) (UniProt Q9H3M7); assay: as above

binding [1]: binds
binding [2]: binds
Substance: GLUT1-VC (BiFC fusion) (from UniProt P11166 1-492)
